Assay results as given in patent US20190041396A1.
Numbering of substitutions follows the chain as printed. No constants are given. Whether binding was seen depends on the method and setting. Binding calls can cover weak binding; strength is not graded here.

Amino acid sequences for entries named in this document (tags omitted). A change or cut given only in a name is not applied to a line headed by its entry.
UniProt P08887: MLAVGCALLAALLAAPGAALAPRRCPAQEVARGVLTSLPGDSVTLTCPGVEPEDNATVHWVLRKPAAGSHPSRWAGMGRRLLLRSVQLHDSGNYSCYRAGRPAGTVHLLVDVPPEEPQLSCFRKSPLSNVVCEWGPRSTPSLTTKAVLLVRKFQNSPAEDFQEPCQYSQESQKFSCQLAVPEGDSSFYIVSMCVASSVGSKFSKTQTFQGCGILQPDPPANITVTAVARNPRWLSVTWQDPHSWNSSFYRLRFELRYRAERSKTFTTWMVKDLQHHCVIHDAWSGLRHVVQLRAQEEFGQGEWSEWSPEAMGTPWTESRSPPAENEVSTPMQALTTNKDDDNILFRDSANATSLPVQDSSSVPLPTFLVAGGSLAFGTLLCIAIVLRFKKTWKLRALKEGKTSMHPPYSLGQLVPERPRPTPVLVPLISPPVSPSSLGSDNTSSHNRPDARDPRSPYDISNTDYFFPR

B1: 6RC1IgG_012 antibody (antibody, V domains shown)
VH: QVQLVQSGAEVKKPGASVKVSCKASGYTFTSYGISWVRQAPGQGLEWMGWISAYNGNTNYAQKLQGRVTMTTDTSTSTAYMELRSLRSDDTAVYYCARATYYYDSSAPAFDIWGQGTMVTVSS
VL: DIQMTQSPSSLSASVGDRVTITCRASQSIEDDLAWYQQKPGKAPKLLIYEASTLQSGVPSRFSGSGSGTDFTLTISSLQPEDFATYYCQQHDDSPLTFGQGTKVEIKR
B2: 6RpH#03 antibody (antibody, human IgG1, kappa, V domains shown)
VH: EVQLVQSGGGLVQPGGSLRLSCAASGFTFSNAWMIWVRQAPGKGLEWVGRIKSKVDGGTTDYAAPVKGRFTISRDDSKNTLYLQMDSLKTEDTAVYYCVADVPASNPYGFDYWGQGTLVTVSS
VL: B1 VL with E30N, D31S, D32H, A34N, E50D, T53H, D92N, D93N, S94Y

Columns and labels:
[1] = target: soluble human IL-6 receptor (hsIL-6R) (human) (UniProt P08887); assay: SPR, Biacore T100, antibody captured on protein A/G, human IL-6 receptor as analyte, 1.2 mM against 3 µM CaCl2, pH 7.4, 37 C
[2] = target: soluble human IL-6 receptor (hsIL-6R) (human) (UniProt P08887); assay: SPR (Biacore T100); antibody captured on protein A/G CM5 chip, human IL-6 receptor injected for 3 min; 3 µM CaCl2, pH 7.4, 37 C
[3] = target: soluble human IL-6 receptor (hsIL-6R) (human) (UniProt P08887); assay: SPR (Biacore T100); antibody captured on protein A/G CM5 chip, human IL-6 receptor injected for 3 min; 1.2 mM CaCl2, pH 7.4, 37 C
[4] = target: soluble human IL-6 receptor (hsIL-6R) (human) (UniProt P08887); assay: SPR, Biacore T100, antibody captured on protein A/G, human IL-6 receptor as analyte, pH 7.4 against pH 6.0, 1.2 mM CaCl2, 37 C
[5] = target: soluble human IL-6 receptor (hsIL-6R) (human) (UniProt P08887); assay: SPR (Biacore T100); antibody (about 300 RU) captured on protein A/G CM5 chip, human IL-6 receptor injected for 3 min; pH 7.4, 1.2 mM CaCl2, 37 C

| Binder | binding [1] | binding [2] | binding [3] | binding [4] | binding [5] |
| --- | --- | --- | --- | --- | --- |
| B1 | binds | binds | binds | – | – |
| B2 | – | – | – | binds | binds |
